These are yes or no findings as the source states them, for the method shown. Some results given as binding are weak or reduced against the parent protein; the word gives no strength.
Biological target: hTie2-Fc (R&D Systems) (human) (UniProt Q02763)
Assay: Complex ELISA: plate coated with Tie2-Fc (4 ug/ml) or BSA, FLAG-Ang2 0.25 ug/ml, held Ang2 shown by 10D6 2 ug/ml and anti-mouse IgG-HRP, OD450

Chains of the proteins cited; added tags and fusions are not shown. Lines headed by an entry give the natural chain unless they say otherwise; changes in a name come on top. Residues count along the entry.
UniProt Q02763, residues 23-745: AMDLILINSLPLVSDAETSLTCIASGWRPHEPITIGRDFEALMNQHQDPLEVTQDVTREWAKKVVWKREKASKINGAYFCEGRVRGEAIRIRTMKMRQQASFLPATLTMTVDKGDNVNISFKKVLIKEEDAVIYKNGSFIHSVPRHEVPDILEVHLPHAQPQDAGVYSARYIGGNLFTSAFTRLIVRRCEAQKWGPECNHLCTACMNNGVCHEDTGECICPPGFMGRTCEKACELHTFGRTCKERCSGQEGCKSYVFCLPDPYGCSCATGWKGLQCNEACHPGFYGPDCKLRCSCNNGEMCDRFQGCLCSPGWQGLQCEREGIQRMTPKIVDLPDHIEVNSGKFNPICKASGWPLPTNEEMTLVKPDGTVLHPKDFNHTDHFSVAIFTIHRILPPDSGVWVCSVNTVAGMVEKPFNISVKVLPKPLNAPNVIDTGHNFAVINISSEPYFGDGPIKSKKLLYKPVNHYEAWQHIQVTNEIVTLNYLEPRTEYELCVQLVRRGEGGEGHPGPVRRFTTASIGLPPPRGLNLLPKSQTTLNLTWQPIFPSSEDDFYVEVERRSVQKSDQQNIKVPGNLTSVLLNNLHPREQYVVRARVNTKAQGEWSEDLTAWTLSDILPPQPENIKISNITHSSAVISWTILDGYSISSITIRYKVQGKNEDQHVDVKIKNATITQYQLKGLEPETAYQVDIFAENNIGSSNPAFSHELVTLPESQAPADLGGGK
UniProt O15123: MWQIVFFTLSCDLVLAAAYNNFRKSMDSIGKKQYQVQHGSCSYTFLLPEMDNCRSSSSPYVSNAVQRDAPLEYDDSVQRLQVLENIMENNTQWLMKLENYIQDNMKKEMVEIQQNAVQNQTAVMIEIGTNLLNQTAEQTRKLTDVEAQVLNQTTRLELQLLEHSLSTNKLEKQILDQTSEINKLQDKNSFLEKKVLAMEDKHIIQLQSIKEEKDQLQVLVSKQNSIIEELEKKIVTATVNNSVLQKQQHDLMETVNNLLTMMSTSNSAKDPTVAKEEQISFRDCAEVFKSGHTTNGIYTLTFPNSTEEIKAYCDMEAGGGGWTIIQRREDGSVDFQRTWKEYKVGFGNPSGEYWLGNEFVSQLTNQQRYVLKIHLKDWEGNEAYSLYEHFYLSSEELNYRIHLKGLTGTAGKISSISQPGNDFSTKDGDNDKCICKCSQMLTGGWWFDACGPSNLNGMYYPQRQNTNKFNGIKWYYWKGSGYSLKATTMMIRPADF

binding: binds
Substance: FLAG-tagged hAng-2 (from UniProt O15123 19-496) (ligand)

— patent publication US20160053025A1
